This experiment deals with Kinesin family member 3A (mouse (endogenous in ovary)) (UniProt P28741). As to the kind of experiment: co-IP; rabbit anti-KIF3A antibody on Dynabeads Protein G, incubated with lysate of 6 mouse ovaries for 6 h at 4 °C, washed three times, eluted; partners detected by western blot. On the technique in general: In western blotting, separated proteins are transferred to a membrane and probed.

Sequences of proteins named here, by UniProt entry; tags and fusion partners are left off.
UniProt P28741: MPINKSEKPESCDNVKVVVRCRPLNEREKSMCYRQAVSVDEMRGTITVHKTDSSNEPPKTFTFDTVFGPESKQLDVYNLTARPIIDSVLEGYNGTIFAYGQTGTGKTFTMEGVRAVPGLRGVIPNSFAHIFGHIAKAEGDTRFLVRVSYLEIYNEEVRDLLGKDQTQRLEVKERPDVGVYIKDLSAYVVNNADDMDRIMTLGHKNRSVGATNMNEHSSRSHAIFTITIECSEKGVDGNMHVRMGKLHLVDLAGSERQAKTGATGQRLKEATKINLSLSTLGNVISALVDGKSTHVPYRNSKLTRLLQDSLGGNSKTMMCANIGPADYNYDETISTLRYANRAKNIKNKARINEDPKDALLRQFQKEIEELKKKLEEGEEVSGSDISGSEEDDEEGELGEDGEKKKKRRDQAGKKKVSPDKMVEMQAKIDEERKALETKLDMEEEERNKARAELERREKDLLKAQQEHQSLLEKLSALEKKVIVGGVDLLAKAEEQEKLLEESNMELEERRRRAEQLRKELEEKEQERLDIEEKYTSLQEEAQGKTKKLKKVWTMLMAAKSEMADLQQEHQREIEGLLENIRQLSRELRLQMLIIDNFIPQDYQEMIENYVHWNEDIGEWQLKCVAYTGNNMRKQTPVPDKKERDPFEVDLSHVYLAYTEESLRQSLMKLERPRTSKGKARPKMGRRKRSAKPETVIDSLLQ

These are yes or no findings as the source states them, for the method shown. Binding seen in cells or lysates may run through a third protein. Some entries that bind do so weakly or less than the wild type. Sequences can lack the tags named with a protein.

B1: KIFC1 (protein, UniProt Q9QWT9 1-674)
chain: MDVQAQRPPLLEVKRNVELKAALVKSSSRVPLSASRLKRGPDQMEDALEPAKKRTRVMGAVTKVDTSRPRGPLLSTVSQTQGHTAAQKGPKKTGPRGCSAIGTVLRSQKPVPAAPAQKPGTSTAPVVVGKRAGKRPAWDLKGQLCDLNEELKRYREKTQTLELENRGLREQLREVQEQATTLGTERNTLEGELASVRSRAEQDQQRLETLSARVLELEECLGTRERLLQELQGERLQLQEERSTLSTQLEEQERRFQATEAALSSSQEEVVCLRQKTEAQVTLLAEQGDRLYGLEMERRRLHNQLQELKGNIRVFCRVRPVLEGESTPSPGFLVFPPGPAGPSDPPTGLSLSRSDDRRSTLTGAPAPTVRHDFSFDRVFPPGSKQEEVFEEIAMLVQSALDGYPVCIFAYGQTGSGKTFTMEGGPRGDPQLEGLIPRAMRHLFSVAQEMSGQGWTYSFVASYVEIYNETVRDLLATGPRKGQGGECEIRRASPGSEELTVTNARYVPVSCEKEVEALLHLAHQNRAVAHTAQNKRSSRSHSVFQLQISGEHAARGLQCGAPLNLVDLAGSERLDPGLHLGPGERDRLRETQAINSSLSTLGLVIMALSNKESHVPYRNSKLTYLLQNSLGGSAKMLMFVNISPLEENVSESLNSLRFASKVNQCVIGTAQANKK
As to B1, the binding entry is listed as “binds”.

B2: histone deacetylase 6 (protein, UniProt Q9Z2V5 1-1149)
chain: MTSTGQDSSTRQRKSRHNPQSPLQESSATLKRGGKKCAVPHSSPNLAEVKKKGKMKKLSQPAEEDLVVGLQGLDLNPETRVPVGTGLVFDEQLNDFHCLWDDSFPESPERLHAIREQLILEGLLGRCVSFQARFAEKEELMLVHSLEYIDLMETTQYMNEGELRVLAETYDSVYLHPNSYSCACLATGSVLRLVDALMGAEIRNGMAVIRPPGHHAQHNLMDGYCMFNHLAVAARYAQKKHRIQRVLIVDWDVHHGQGTQFIFDQDPSVLYFSIHRYEHGRFWPHLKASNWSTIGFGQGQGYTINVPWNQTGMRDADYIAAFLHILLPVASEFQPQLVLVAAGFDALHGDPKGEMAATPAGFAHLTHLLMGLAGGKLILSLEGGYNLRALAKGVSASLHTLLGDPCPMLESCVVPCASAQTSIYCTLEALEPFWEVLERSVETQEEDEVEEAVLEEEEEEGGWEATALPMDTWPLLQNRTGLVYDEKMMSHCNLWDNHHPETPQRILRIMCHLEEVGLAARCLILPARPALDSELLTCHSAEYVEHLRTTEKMKTRDLHREGANFDSIYICPSTFACAKLATGAACRLVEAVLSGEVLNGIAVVRPPGHHAEPNAACGFCFFNSVAVAARHAQIIAGRALRILIVDWDVHHGNGTQHIFEDDPSVLYVSLHRYDRGTFFPMGDEGASSQVGRDAGIGFTVNVPWNGPRMGDADYLAAWHRLVLPIAYEFNPELVLISAGFDAAQGDPLGGCQVTPEGYAHLTHLLMGLAGGRIILILEGGYNLASISESMAACTHSLLGDPPPQLTLLRPPQSGALVSISEVIQVHRKYWRSLRLMKMEDKEECSSSRLVIKKLPPTASPVSAKEMTTPKGKVPEESVRKTIAALPGKESTLGQAKSKMAKAVLAQGQSSEQAAKGTTLDLATSKETVGGATTDLWASAAAPENFPNQTTSVEALGETEPTPPASHTNKQTTGASPLQGVTAQQSLQLGVLSTLELSREAEEAHDSEEGLLGEAAGGQDMNSLMLTQGFGDFNTQDVFYAVTPLSWCPHLMAVCPIPAAGLDVSQPCKTCGTVQENWVCLTCYQVYCSRYVNAHMVCHHEASEHPLVLSCVDLSTWCYVCQAYVHHEDLQDVKNAAHQNKFGEDMPHSH
For the molecule B2, the binding entry was “binds”.

Values taken from article PMC11001723.
